Data reported in the supplement of paper PMC11006884.
The list shows a part of the results, in another mix than the full data.

Sequences of proteins named here, by UniProt entry; tags and fusion partners are left off. A change or cut given only in a name is not applied to a line headed by its entry.
UniProt Q96EK5: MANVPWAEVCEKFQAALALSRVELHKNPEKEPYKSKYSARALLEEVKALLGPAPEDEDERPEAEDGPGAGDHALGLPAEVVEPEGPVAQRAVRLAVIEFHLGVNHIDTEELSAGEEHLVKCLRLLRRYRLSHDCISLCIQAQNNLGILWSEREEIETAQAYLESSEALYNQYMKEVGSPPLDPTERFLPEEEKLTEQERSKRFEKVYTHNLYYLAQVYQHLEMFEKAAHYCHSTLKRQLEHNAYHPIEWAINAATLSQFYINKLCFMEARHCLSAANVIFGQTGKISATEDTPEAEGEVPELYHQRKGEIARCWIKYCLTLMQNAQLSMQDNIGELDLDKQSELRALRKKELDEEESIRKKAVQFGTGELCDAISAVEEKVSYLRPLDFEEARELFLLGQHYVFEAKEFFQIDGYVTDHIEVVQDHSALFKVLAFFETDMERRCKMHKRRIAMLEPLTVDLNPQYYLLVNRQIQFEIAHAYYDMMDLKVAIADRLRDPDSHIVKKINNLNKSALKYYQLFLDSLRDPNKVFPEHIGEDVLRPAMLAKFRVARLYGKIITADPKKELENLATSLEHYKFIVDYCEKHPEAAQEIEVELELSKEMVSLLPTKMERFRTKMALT
UniProt Q96HC4: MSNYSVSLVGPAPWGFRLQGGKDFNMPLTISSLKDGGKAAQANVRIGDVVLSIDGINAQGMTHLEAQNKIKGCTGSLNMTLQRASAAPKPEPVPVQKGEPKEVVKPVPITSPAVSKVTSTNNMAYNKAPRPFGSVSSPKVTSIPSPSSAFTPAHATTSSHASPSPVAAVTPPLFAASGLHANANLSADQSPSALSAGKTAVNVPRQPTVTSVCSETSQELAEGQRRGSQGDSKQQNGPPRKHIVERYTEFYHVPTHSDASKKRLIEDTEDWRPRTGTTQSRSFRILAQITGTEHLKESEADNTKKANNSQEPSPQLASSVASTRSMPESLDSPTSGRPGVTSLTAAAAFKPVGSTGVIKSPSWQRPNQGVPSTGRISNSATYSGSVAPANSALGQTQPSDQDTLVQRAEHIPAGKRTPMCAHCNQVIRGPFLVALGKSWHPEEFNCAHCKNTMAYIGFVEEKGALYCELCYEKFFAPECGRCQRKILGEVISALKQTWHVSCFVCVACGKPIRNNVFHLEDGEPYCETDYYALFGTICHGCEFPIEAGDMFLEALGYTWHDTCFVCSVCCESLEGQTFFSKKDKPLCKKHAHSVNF
UniProt Q96BY7: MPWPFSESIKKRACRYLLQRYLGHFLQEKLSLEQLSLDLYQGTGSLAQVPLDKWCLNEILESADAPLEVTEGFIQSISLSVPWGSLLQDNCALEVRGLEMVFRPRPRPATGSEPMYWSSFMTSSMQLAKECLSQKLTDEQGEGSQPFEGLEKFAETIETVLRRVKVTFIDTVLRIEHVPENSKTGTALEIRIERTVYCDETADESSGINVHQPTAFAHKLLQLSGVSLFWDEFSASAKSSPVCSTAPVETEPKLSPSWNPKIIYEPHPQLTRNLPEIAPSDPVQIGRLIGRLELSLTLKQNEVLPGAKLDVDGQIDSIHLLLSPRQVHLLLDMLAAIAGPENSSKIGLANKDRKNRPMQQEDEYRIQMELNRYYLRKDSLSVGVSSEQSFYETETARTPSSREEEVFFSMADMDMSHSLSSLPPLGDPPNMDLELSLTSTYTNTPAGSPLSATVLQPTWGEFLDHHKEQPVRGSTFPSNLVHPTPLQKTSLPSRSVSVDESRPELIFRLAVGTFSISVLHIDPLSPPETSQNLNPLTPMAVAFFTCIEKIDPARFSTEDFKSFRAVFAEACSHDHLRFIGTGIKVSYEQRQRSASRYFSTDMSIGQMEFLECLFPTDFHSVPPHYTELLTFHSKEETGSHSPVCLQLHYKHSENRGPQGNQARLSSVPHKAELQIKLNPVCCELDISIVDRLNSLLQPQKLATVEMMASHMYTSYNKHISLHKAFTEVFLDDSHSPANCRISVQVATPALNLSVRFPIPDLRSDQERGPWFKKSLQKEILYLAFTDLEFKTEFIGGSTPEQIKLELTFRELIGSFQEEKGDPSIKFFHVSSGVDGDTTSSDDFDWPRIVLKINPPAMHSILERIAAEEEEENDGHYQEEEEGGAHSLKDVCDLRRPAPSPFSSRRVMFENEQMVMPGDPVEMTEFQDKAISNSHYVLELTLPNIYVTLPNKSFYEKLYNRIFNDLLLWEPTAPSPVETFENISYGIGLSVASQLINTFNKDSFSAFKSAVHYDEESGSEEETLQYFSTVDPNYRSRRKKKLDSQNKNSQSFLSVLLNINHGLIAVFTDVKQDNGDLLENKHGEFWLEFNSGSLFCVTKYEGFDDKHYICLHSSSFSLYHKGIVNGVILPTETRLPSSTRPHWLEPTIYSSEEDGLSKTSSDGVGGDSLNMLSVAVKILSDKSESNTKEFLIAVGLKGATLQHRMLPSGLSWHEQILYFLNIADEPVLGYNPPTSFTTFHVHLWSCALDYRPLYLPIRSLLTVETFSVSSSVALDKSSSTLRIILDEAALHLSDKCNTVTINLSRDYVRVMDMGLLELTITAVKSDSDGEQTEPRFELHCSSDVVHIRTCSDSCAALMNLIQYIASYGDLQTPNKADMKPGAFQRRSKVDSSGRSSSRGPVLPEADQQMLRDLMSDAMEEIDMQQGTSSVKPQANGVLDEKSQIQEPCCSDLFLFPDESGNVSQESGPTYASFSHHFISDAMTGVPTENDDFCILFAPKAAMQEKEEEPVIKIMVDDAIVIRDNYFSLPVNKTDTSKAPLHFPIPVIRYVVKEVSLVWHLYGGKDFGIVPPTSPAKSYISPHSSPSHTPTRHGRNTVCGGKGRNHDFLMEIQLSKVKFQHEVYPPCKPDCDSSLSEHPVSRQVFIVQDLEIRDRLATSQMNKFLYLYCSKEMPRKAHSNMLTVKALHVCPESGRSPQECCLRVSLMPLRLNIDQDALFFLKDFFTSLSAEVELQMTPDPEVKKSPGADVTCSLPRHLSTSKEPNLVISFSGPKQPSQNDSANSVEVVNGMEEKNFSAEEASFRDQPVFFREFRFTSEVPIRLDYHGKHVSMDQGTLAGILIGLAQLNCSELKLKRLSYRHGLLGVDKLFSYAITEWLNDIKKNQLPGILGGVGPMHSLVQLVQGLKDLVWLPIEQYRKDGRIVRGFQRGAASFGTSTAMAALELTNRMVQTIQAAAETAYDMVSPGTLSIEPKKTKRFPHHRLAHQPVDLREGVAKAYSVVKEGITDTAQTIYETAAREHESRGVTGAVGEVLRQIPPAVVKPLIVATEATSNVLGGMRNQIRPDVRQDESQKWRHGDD
UniProt Q96BR5: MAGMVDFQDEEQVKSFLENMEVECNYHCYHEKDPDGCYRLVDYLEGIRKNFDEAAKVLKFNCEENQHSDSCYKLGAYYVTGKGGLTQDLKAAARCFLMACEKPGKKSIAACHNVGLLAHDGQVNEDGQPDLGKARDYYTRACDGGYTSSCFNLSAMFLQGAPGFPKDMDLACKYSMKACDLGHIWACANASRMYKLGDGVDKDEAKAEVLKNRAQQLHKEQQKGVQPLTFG
UniProt Q93008, whole entry, looked up: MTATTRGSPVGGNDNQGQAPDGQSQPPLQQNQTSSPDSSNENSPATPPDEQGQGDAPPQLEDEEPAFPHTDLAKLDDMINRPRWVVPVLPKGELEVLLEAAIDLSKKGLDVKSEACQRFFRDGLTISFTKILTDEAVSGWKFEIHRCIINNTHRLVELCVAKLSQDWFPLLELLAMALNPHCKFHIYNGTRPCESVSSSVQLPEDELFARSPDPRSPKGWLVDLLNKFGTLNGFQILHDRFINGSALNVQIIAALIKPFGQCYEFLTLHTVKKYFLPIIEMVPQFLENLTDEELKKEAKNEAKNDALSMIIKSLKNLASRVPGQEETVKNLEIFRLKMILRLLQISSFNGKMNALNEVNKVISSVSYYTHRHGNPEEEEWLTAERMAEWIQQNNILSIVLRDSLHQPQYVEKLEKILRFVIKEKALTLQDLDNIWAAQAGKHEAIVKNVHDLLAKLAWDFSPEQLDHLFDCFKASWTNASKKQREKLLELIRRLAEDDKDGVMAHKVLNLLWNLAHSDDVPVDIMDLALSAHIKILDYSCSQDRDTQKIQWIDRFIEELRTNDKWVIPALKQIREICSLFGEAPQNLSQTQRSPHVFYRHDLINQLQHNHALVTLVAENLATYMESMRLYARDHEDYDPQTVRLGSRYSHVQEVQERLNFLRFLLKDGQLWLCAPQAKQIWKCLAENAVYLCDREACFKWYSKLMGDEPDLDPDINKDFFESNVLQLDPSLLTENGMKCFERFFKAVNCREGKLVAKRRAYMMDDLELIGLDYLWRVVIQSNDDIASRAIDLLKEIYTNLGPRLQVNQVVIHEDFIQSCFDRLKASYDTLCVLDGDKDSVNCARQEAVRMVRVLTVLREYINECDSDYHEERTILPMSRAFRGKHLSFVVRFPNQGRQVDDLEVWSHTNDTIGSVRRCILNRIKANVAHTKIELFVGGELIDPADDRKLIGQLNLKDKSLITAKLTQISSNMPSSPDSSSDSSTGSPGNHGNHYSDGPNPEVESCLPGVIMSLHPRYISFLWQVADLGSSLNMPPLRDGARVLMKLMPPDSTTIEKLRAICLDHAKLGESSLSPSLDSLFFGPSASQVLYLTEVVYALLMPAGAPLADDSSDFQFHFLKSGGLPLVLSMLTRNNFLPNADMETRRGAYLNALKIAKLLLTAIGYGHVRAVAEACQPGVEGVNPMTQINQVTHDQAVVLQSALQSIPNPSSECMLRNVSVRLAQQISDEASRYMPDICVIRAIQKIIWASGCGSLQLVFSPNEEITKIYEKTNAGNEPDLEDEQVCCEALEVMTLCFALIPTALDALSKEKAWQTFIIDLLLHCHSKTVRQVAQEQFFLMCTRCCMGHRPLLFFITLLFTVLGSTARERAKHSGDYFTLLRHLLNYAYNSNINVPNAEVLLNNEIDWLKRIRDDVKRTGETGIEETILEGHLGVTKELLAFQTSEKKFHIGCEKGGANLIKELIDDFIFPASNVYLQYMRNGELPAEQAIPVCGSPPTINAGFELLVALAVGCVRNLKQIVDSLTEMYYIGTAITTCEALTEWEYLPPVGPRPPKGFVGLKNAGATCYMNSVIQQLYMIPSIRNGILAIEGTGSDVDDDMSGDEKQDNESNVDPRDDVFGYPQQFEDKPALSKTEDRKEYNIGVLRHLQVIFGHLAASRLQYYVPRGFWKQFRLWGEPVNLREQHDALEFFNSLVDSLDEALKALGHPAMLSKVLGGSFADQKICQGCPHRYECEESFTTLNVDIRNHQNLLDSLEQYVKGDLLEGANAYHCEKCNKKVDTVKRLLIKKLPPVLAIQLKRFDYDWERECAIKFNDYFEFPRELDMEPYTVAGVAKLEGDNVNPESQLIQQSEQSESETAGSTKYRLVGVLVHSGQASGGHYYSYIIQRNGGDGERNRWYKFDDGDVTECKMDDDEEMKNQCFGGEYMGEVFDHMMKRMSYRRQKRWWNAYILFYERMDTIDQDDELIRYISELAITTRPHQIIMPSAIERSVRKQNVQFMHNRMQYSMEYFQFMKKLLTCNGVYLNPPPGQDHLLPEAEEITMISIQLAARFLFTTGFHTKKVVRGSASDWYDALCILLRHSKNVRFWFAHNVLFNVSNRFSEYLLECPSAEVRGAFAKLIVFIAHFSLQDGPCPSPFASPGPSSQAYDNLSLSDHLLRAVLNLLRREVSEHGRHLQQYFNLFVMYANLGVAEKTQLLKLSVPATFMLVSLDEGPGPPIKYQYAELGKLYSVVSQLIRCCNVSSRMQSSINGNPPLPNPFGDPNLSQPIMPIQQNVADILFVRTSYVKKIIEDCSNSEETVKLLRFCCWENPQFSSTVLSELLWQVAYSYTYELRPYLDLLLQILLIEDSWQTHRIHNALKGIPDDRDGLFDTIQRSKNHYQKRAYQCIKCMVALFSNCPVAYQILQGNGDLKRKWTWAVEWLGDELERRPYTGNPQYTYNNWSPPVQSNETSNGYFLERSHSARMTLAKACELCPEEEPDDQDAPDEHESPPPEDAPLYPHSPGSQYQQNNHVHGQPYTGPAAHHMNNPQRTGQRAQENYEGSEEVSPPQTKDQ
UniProt Q92947: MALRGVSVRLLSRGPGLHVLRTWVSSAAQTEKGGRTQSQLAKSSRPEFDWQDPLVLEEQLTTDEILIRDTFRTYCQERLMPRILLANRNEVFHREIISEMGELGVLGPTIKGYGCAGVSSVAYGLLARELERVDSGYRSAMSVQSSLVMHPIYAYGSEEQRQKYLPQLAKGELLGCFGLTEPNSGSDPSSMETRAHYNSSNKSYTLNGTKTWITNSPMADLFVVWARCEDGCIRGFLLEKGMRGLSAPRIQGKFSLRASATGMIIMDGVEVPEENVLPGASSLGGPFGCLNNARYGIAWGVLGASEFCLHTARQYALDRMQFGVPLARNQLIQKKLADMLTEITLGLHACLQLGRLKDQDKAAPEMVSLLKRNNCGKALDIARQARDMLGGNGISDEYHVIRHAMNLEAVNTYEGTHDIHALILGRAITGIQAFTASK

What follows are targets tested with COC(=O)C#Cc1ccccc1 [methyl 3-phenylpropiolate] (assay: log2 ratio of iodoacetamide-alkyne labeling of the cysteine site, DMSO over compound (competition); higher = stronger covalent engagement of the cysteine by the compound, active = 1 or more). Settings: 500 µM; treatment time 1 h; system: HEK293T cell lysate.
In short: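 HEK293T lysate at 2 mg/mL was treated with vehicle or electrophile (500 µM) for 1 h at ambient temperature, then labelled with iodoacetamide alkyne (1 h), clicked to sCIP-TMT reagents, pooled, digested with trypsin overnight at 37 °C, enriched on streptavidin and eluted with acid. Peptides were analysed by Orbitrap Eclipse LC-MS/MS with FAIMS and quantified in FragPipe, using duplicate channels and three replicates, with cysteines quantified in only one replicate excluded. The log2 competition ratio for each cysteine is the mean control-channel reporter intensity divided by the mean compound-channel reporter intensity.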

log2 ratio of iodoacetamide-alkyne labeling, inactive:
THOC1 C396 (UniProt Q96FV9) 0.492
SMARCC1 C511 (UniProt Q92922) 0.155
AKAP1 C165 (UniProt Q92667) 0.411
LRRC59 C277 (UniProt Q96AG4) 0.605
GNPNAT1 C45 (UniProt Q96EK6) 0.234
UniProt Q96EK5_C10 -0.101
PDLIM5 C446 (UniProt Q96HC4) 0.0755
UniProt Q92879_C62 0.05
UniProt Q92616_C36 0.339
UniProt Q92615_C590 0.305
RPL36AL C88 (UniProt Q969Q0) 0.698
RPL36AL C72 (UniProt Q969Q0) 0.0561
GBF1 C1766 (UniProt Q92538) 0.302
RREB1 C648 (UniProt Q92766) 0.143
ATG2B C243 (UniProt Q96BY7) 0.198
UniProt Q96BR5_C24 -0.0575
USP9X C1061 (UniProt Q93008) 0.0678
TTC28 C502 (UniProt Q96AY4) 0.222
GCDH C176 (UniProt Q92947) 0.229
UniProt Q969Z3_C272 0.574
ARHGEF2 C383 (UniProt Q92974) 0.434
UniProt Q96EK5_C371 0.247

Fetched one by one from above:
log2 ratio of iodoacetamide-alkyne labeling, inactive:
UniProt Q96EK5_C10 -0.101
RPL36AL C72 (UniProt Q969Q0) 0.0561
